± gives the standard deviation of the averaged measurements. Small differences around the control level are noise.
Tests used:
Experiment in all cases: level (log10 ratio to DMSO vehicle control); higher = higher biomarker level / cell amount than vehicle control
Perfluoro-1-iodohexane = compound: FC(F)(F)C(F)(F)C(F)(F)C(F)(F)C(F)(F)C(F)(F)I [Perfluoro-1-iodohexane]; conditions: in DMSO
Procedure: (§1)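 BioMAP Diversity Plus panel of 12 human primary cell co-culture systems (3C, 4H, LPS, SAg, BT, BF4T, BE3C, CASM3C, HDF3CGF, KF3CT, MyoF, Mphg). Compounds were added 1 h before stimulation and left for 24 h (MyoF 48 h; BT 72 h for soluble read-outs or 6 d for IgG). Biomarkers were read by ELISA, cytotoxicity by SRB, PBMC viability and proliferation by Alamar Blue. Each well value was divided by the mean of 8 DMSO control wells on the same plate and log10 transformed; duplicate blinded samples were tested at 4 concentrations.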

[1] = compound: C=CC(=O)OCC(F)(F)C(F)(F)C(F)(F)COC(=O)C=C [1H,1H,5H,5H-Perfluoro-1,5-pentanediol diacrylate]; conditions: 2200 nM; in DMSO
Procedure: as §1

Hexafluoroamylene glycol = compound: OCC(F)(F)C(F)(F)C(F)(F)CO [Hexafluoroamylene glycol]; conditions: 2200 nM; in DMSO
Procedure: as §1

[2] = compound: OCCCC(F)(F)C(F)(F)C(F)(F)C(F)(F)C(F)(F)C(F)(F)C(F)(F)F [7:3 Fluorotelomer alcohol]; conditions: 2200 nM; in DMSO
Procedure: as §1

[3] = compound: O=C(O)C(F)(F)C(F)(F)C(F)(F)C(F)(F)C(F)(F)C(F)(F)C(F)(F)C(F)(F)C(F)(F)C(F)(F)C(F)(F)C(F)(F)C(F)(F)F [Perfluorotetradecanoic acid]; conditions: in DMSO
Procedure: as §1

[4] = compound: O=C(O)C=C(C(F)(F)F)C(F)(F)F [3,3-Bis(trifluoromethyl)-2-propenoic acid]; conditions: in DMSO
Procedure: as §1

[5] = compound: O=S(=O)(O)C(F)(F)C(F)(F)C(F)(F)C(F)(F)C(F)(F)C(F)(F)F [Perfluorohexanesulfonic acid]; conditions: 2200 nM; in DMSO
Procedure: as §1

[6] = compound: C=CC(=O)OCCC(F)(F)C(F)(F)C(F)(F)C(F)(F)F [2-(Perfluorobutyl)ethyl acrylate]; conditions: 2200 nM; in DMSO
Procedure: as §1

[7] = compound: FC(F)(I)C(F)(F)C(F)(F)C(F)(F)C(F)(F)C(F)(F)I [1,6-Diiodoperfluorohexane]; conditions: 2200 nM; in DMSO
Procedure: as §1

[8] = compound: O=S(=O)(O)CCC(F)(F)C(F)(F)C(F)(F)C(F)(F)F [4:2 Fluorotelomer sulfonic acid]; conditions: 2200 nM; in DMSO
Procedure: as §1

[9] = compound: FC(F)(F)C(F)(C(F)(F)F)C(F)(F)C(F)(F)CC1CO1 [3-(Perfluoro-3-methylbutyl)-1,2-propenoxide]; conditions: in DMSO
Procedure: as §1

[10] = compound: C=CC(=O)OCCC(F)(F)C(F)(F)C(F)(F)C(F)(F)C(F)(F)C(F)(F)C(F)(F)C(F)(F)F [8:2 Fluorotelomer acrylate]; conditions: 2200 nM; in DMSO
Procedure: as §1

[11] = compound: O=C(Cl)C(F)(F)C(F)(F)C(F)(F)C(=O)Cl [Hexafluoroglutaryl chloride]; conditions: 2200 nM; in DMSO
Procedure: as §1

| Test System | level (log10) (Perfluoro-1-iodohexane; 2200 nM) | level (log10) (Perfluoro-1-iodohexane; 6700 nM) | level (log10) (Perfluoro-1-iodohexane; 20000 nM) | level (log10) (Perfluoro-1-iodohexane; 60000 nM) | level (log10) [1] | level (log10) (Hexafluoroamylene glycol) | level (log10) [2] | level (log10) ([3]; 740 nM) | level (log10) ([3]; 2200 nM) | level (log10) ([4]; 2200 nM) | level (log10) ([4]; 6700 nM) | level (log10) ([4]; 20000 nM) | level (log10) ([4]; 60000 nM) | level (log10) [5] | level (log10) [6] | level (log10) [7] | level (log10) [8] | level (log10) ([9]; 740 nM) | level (log10) ([9]; 2200 nM) | level (log10) [10] | level (log10) [11] |
| --- | --- | --- | --- | --- | --- | --- | --- | --- | --- | --- | --- | --- | --- | --- | --- | --- | --- | --- | --- | --- | --- |
| 3C:CD141/Thrombomodulin | -0.012 ± 0.0042 | -0.025 ± 0.013 | -0.023 ± 0.014 | -0.0015 ± 0.005 | -0.0405 ± 0.077 | -0.0095 ± 0.029 | -0.0195 ± 0.0092 | 0.0125 ± 0.025 | -0.013 ± 0.021 | 0.0325 ± 0.023 | 0.023 ± 0.0057 | 0.0025 ± 0.00071 | 0.0215 ± 0.037 | -0.005 ± 0.0099 | 0.0005 ± 0.015 | -0.0215 ± 0.00071 | 0.018 ± 0.028 | 0.018 ± 0.011 | 0.002 ± 0.0028 | 0.015 ± 0.0014 | -0.0325 ± 0.00071 |
| BT:PBMC Cytotoxicity | 0.022 ± 0.031 | 0.042 ± 0.014 | -0.0045 ± 0.022 | 0.0285 ± 0.0035 | -0.0735 ± 0.03 | 0.008 ± 0.0071 | 0.053 | -0.005 ± 0.016 | -0.0075 ± 0.00071 | 0.03 ± 0.031 | 0.0065 ± 0.049 | 0.001 ± 0.02 | -0.009 ± 0.025 | 0.0135 ± 0.012 | -0.0355 ± 0.0064 | 0.0025 ± 0.025 | -0.0005 ± 0.05 | 0.0165 ± 0.021 | 0.0095 ± 0.005 | 0.0055 ± 0.022 | 0.0045 ± 0.049 |
| LPS:sTNF-alpha | -0.005 ± 0.011 | 0.0005 ± 0.022 | -0.008 ± 0.016 | 0.0075 ± 0.029 | 0.003 ± 0.013 | -0.008 ± 0.03 | -0.0165 ± 0.054 | -0.011 ± 0.0028 | -0.016 ± 0.011 | -0.0045 ± 0.013 | -0.0305 ± 0.042 | 0.0195 ± 0.023 | -0.0025 ± 0.035 | 0.008 ± 0.0042 | -0.0105 ± 0.021 | -0.013 ± 0.034 | -0.0085 ± 0.012 | -0.0055 ± 0.00071 | -0.006 ± 0.0057 | -0.019 ± 0.054 | 0.0465 ± 0.087 |
| HDF3CGF:Proliferation 72hr | -0.0325 ± 0.015 | -0.0315 ± 0.019 | -0.028 ± 0.0014 | -0.468 ± 0.57 | -0.642 ± 0.0085 | -0.067 ± 0.021 | -0.0195 ± 0.029 | 0.0265 ± 0.054 | 0.0285 ± 0.037 | 0.046 ± 0.04 | -0.0325 ± 0.021 | -0.086 ± 0.069 | -0.24 ± 0.066 | 0.0255 ± 0.083 | -0.0355 ± 0.093 | -0.221 ± 0.05 | -0.0325 ± 0.06 | 0.0035 ± 0.042 | -0.008 ± 0.023 | -0.0395 ± 0.0035 | 0.004 ± 0.0014 |
| MyoF:Collagen I | -0.022 ± 0.011 | -0.0295 ± 0.019 | -0.062 ± 0.04 | -0.246 ± 0.094 | 0.004 ± 0.0042 | -0.0055 ± 0.033 | 0.003 ± 0.0099 | 0.023 ± 0.0042 | 0.0155 ± 0.011 | -0.0155 ± 0.016 | -0.031 ± 0.0057 | -0.046 ± 0.021 | -0.055 ± 0.04 | 0.006 ± 0.045 | -0.006 ± 0.05 | -0.028 ± 0.025 | 0.009 ± 0.011 | -0.0015 ± 0.0078 | -0.001 ± 0.0042 | -0.0035 ± 0.005 | -0.0075 ± 0.013 |
| LPS:sPGE2 | -0.02 ± 0.0071 | 0.0235 ± 0.0092 | 0.0015 ± 0.00071 | -0.038 ± 0.018 | -0.02 ± 0.0042 | -0.013 ± 0.02 | 0.019 ± 0.0028 | -0.0045 ± 0.049 | 0.0585 ± 0.11 | -0.092 ± 0.018 | -0.0855 ± 0.016 | -0.09 ± 0.021 | -0.106 ± 0.016 | -0.0115 ± 0.012 | -0.0715 ± 0.018 | 0.004 ± 0.0042 | 0.0025 ± 0.022 | -0.0125 ± 0.026 | -0.009 ± 0.069 | -0.0485 ± 0.056 | 0.006 ± 0.033 |
| 4H:VEGFR2 | 0.0185 ± 0.019 | 0.0075 ± 0.0092 | 0.006 ± 0.02 | 0.004 ± 0.023 | 0.0045 ± 0.11 | 0.0145 ± 0.036 | 0.018 ± 0.031 | 0.038 ± 0.037 | 0.0095 ± 0.064 | 0.003 ± 0.033 | -0.02 | -0.019 ± 0.0099 | -0.04 ± 0.0057 | 0.001 ± 0.014 | 0.022 ± 0.014 | 0.0445 ± 0.064 | -0.0555 ± 0.018 | 0.0185 ± 0.03 | -0.006 ± 0.014 | 0.0125 ± 0.005 | -0.011 ± 0.081 |
| LPS:CD142/Tissue Factor | -0.016 ± 0.0099 | -0.018 ± 0.038 | 0.0045 ± 0.0021 | 0.0045 ± 0.011 | -0.004 | 0.0265 ± 0.069 | -0.027 ± 0.021 | 0.0645 ± 0.036 | -0.0005 ± 0.071 | 0.0005 ± 0.043 | 0.0165 ± 0.064 | -0.023 ± 0.12 | -0.036 ± 0.12 | -0.023 ± 0.0028 | 0.009 ± 0.065 | -0.0475 ± 0.0021 | -0.0465 ± 0.043 | -0.0225 ± 0.086 | -0.0545 ± 0.091 | 0.0495 ± 0.0064 | 0.086 ± 0.03 |

Record cards, from the list above. Values in the order: level (log10) (Perfluoro-1-iodohexane; 2200 nM) | level (log10) (Perfluoro-1-iodohexane; 6700 nM) | level (log10) (Perfluoro-1-iodohexane; 20000 nM) | level (log10) (Perfluoro-1-iodohexane; 60000 nM) | level (log10) [1] | level (log10) (Hexafluoroamylene glycol) | level (log10) [2] | level (log10) ([3]; 740 nM) | level (log10) ([3]; 2200 nM) | level (log10) ([4]; 2200 nM) | level (log10) ([4]; 6700 nM) | level (log10) ([4]; 20000 nM) | level (log10) ([4]; 60000 nM) | level (log10) [5] | level (log10) [6] | level (log10) [7] | level (log10) [8] | level (log10) ([9]; 740 nM) | level (log10) ([9]; 2200 nM) | level (log10) [10] | level (log10) [11]
BT:PBMC Cytotoxicity is listed as 0.022 ± 0.031 | 0.042 ± 0.014 | -0.0045 ± 0.022 | 0.0285 ± 0.0035 | -0.0735 ± 0.03 | 0.008 ± 0.0071 | 0.053 | -0.005 ± 0.016 | -0.0075 ± 0.00071 | 0.03 ± 0.031 | 0.0065 ± 0.049 | 0.001 ± 0.02 | -0.009 ± 0.025 | 0.0135 ± 0.012 | -0.0355 ± 0.0064 | 0.0025 ± 0.025 | -0.0005 ± 0.05 | 0.0165 ± 0.021 | 0.0095 ± 0.005 | 0.0055 ± 0.022 | 0.0045 ± 0.049
LPS:sTNF-alpha is listed as -0.005 ± 0.011 | 0.0005 ± 0.022 | -0.008 ± 0.016 | 0.0075 ± 0.029 | 0.003 ± 0.013 | -0.008 ± 0.03 | -0.0165 ± 0.054 | -0.011 ± 0.0028 | -0.016 ± 0.011 | -0.0045 ± 0.013 | -0.0305 ± 0.042 | 0.0195 ± 0.023 | -0.0025 ± 0.035 | 0.008 ± 0.0042 | -0.0105 ± 0.021 | -0.013 ± 0.034 | -0.0085 ± 0.012 | -0.0055 ± 0.00071 | -0.006 ± 0.0057 | -0.019 ± 0.054 | 0.0465 ± 0.087

— the supplement of paper PMC10331698
